Test results taken from PubChem BioAssay AID485314 (National Center for Advancing Translational Sciences (NCATS), 2010).
Among all 340,000 compounds or so, about 4,500 (1.3%) were called active. Inconclusive results, whose numbers are uncertain, are shown with a selection of clear calls. The call rests on the fitted dose curve; in most records, active means well fitted inhibition curve with a large enough effect; inconclusive means small, poorly fitted or top-dose-only effect, or another doubt; inactive means no such curve, though single readings can be large or run the other way. Where the call is inconclusive, the potency comes from a doubtful curve fit.

target: DNA polymerase beta (Homo sapiens) (UniProt P06746); experiment: qHTS Assay for Inhibitors of DNA Polymerase Beta; settings: Pol beta primer extension/strand displacement, fluorescence kinetic; activity change, negative = inhibition: at 114 µM (top of the series)
In short: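 Preincubation: enzyme (10 nM) with compound, 15 min, RT. Reaction: substrate added to 50 nM final. Reads: 0 and 10 min. Analysis: normalized, Hill fit.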
On the % scale 0 is the no-effect control and ±100 the full control effect; potency means the concentration at half of the fitted maximal effect.

Potency, inactive:
CC(C)CCn1c(=O)c2cccnc2n(CC(=O)Nc2ccccc2)c1=O
Cc1nc(/N=C(\N)NC(=O)c2ccccc2)nc2ccccc12
CCOC(=O)Cc1cc(C(=O)Nc2ccc(Br)cc2)sc1-c1ccc(C)cc1
COc1cc(/C=N/NC(=O)c2sc(N)c(C#N)c2C)ccc1O
O=C(O)CSc1nnc(CNc2cccc(C(F)(F)F)c2)n1Cc1ccco1
Cc1ccc(N=Nc2ccc3ccccc3c2O)cc1
O=C(O)c1ccccc1O
O=C(Nc1ccccc1)c1cc(-n2cnnc2)ccc1Cl
COc1ccc(CCNC(=O)Cn2c(=O)cc(C(F)(F)F)c3c(C)nn(C)c32)cc1OC

Potency, active:
CN(c1ccccc1C(=O)O)S(=O)(=O)c1ccc2c3c(cccc13)C(=O)N2 12.6 µM
Cc1cccc(C)c1NC(=O)Cn1c(=O)n(Cc2ccc(C(=O)NCc3ccco3)cc2)c(=O)c2sccc21 44.7 µM
c1ccc(-c2cc(-c3nnc4sc(-c5ccccn5)nn34)[nH]n2)cc1 39.8 µM
C/C(C/C(C)=C1/SC(=S)NC1=O)=C1\SC(=S)NC1=O 15.8 µM
Cc1ccc(C(=O)N/N=C\c2ccc(-c3ccc(Cl)c(Cl)c3)o2)cn1 20 µM
COc1ccc(/C=N/NC(=O)c2ccc(Cl)cc2)cc1Cn1cc(Cl)cn1 20 µM
Cc1oc(C(=O)O)cc1COc1cccc2cccnc12 10 µM
COc1ccc2c3c(c(=O)oc2c1)C1O[C@](c2ccsc2)(Cc2cc(C#N)ccc21)O3 3.16 µM

Reprinted at random: 4 entries already listed
Potency, active:
COc1ccc2c3c(c(=O)oc2c1)C1O[C@](c2ccsc2)(Cc2cc(C#N)ccc21)O3 3.16 µM
Cc1ccc(C(=O)N/N=C\c2ccc(-c3ccc(Cl)c(Cl)c3)o2)cn1 20 µM
CN(c1ccccc1C(=O)O)S(=O)(=O)c1ccc2c3c(cccc13)C(=O)N2 12.6 µM
Cc1oc(C(=O)O)cc1COc1cccc2cccnc12 10 µM

Next part:

Potency, inconclusive:
NC(=O)C1CC(=O)N(c2ccc(OCc3ccc(F)cc3)cc2)C1 (stereo not given) 35.5 µM [inhibitor, single point]
CC(O)CNc1nc2c(c(=O)n(C)c(=O)n2C)n1Cc1cccc(Br)c1 (stereo not given) 4.47 µM [inhibitor, single point]
Cc1oc(-c2ccc(C(=O)NCCC(C)C)cc2)nc1CS(=O)(=O)c1ccccc1 89.1 µM [inhibitor, single point]
CC(C)C(=O)Nc1cccc(-c2nc3ccccc3o2)c1 25.1 µM [inhibitor, single point]
O=C(Nc1ccccc1)OCc1cc(-c2ccc(Cl)cc2)on1 3.98 µM [inhibitor, full curve, poor fit]
CCOc1ccccc1Nc1ccnc2cc(Cl)ccc12 1.26 µM [inhibitor, full curve]
O=C1NC(c2ccccc2)=C(c2nc3ccccc3s2)C(c2ccc(F)cc2)N1 (stereo not given) 39.8 µM [inhibitor, single point]
Cc1cccc(CNS(=O)(=O)c2ccc(-c3ccc(=O)[nH]n3)s2)c1 70.8 µM [inhibitor, single point]
CC(C)(C)n1nnnc1C(c1cccc(C#N)c1)N1CCN2CCCC2C1 (stereo not given) 89.1 µM [inhibitor, single point]
CC(C)c1ccc(NC(=O)C2CCC(CNC(=O)[C@@H]3Cc4ccccc4CN3)CC2)cc1 (stereo not given in full) 0.158 µM [inhibitor, full curve]
C#CCN1C(=O)S/C(=C\c2ccc(-c3ccc(Cl)c(C(=O)O)c3)o2)C1=O 31.6 µM [inhibitor, partial curve]
COc1ccc(Cl)c(Cn2c(NCCCN(C)C)nc3c2c(=O)n(C)c(=O)n3C)c1 89.1 µM [inhibitor, single point]
COc1ccc(C(=O)/C=C/c2cccc(OCc3ccccc3)c2)cc1CSCC(=O)O 89.1 µM [inhibitor, single point]
CN1CCN(c2nc3c(c(=O)[nH]c(=O)n3C)n2Cc2ccc(Cl)cc2)CC1 39.8 µM [inhibitor, single point]
COc1cc(C(=O)Nc2c(C(=O)O)[nH]c3ccc(Br)cc23)cc(OC)c1OC 0.141 µM [inhibitor, full curve, poor fit]
CC(=O)c1cccc(NC(=O)c2ccc3c(=O)n4c(nc3c2)CCCCC4)c1 89.1 µM [inhibitor, single point]
Cc1ccc(-n2nc3c(N4CCC(C(=O)NCCc5cccs5)CC4)nnc(C)c3c2C)cc1 25.1 µM [inhibitor, single point]
CCCn1c(SCC(=O)N2c3ccccc3CCc3ccccc32)nc2c1c(=O)n(C)c(=O)n2C 31.6 µM [inhibitor, single point]
O=C(CSc1nc2ccc(Cl)cc2[nH]1)N1CCN(C(=O)c2ccco2)CC1 12.6 µM [inhibitor, partial curve]
C=CCNC(=S)Nc1cccc2[nH]ncc12 100 µM [inhibitor, single point]
Cc1cc2c(=O)n(Cc3ccco3)c(SCC(=O)N3CCCc4ccccc43)nc2s1 89.1 µM [inhibitor, single point]
CC(C)CN(C(=O)c1ccc(=O)n(C)n1)c1nc2ccccc2s1 0.141 µM [inhibitor, full curve, poor fit]
CC(Cn1nnc2ccccc21)C(=O)O (stereo not given) 44.7 µM [inhibitor, partial curve]
O=S(=O)(Nc1ccc(Br)cc1)N1CCOCC1 35.5 µM [inhibitor, single point]

Activity change, negative = inhibition, inconclusive:
Cc1cccc(NC(=O)CN2C(=O)N/C(=C\c3ccc(-c4cccc(C(=O)O)c4)o3)C2=O)c1 -104% [inhibitor]
O=C1CCC(C(=O)N2CCN(c3ccc(F)cc3)CC2)CN1CC1CCCCC1 (stereo not given) -33.3% [inhibitor]
O=C(Nc1nnc(SCc2ccccn2)s1)C1CC(=O)N(c2ccc(F)cc2)C1 (stereo not given) -45.4% [inhibitor]
CC(=O)Nc1nnc(SCC(=O)Nc2ccc(N3CCOCC3)c(Cl)c2)s1 -44.2% [inhibitor]
